## Screening data, single-dose tests

Protein sequences, listed by entry. Tags and fused reporters are not part of them. Residues count along the entry.
UniProt P9WFT3, whole entry: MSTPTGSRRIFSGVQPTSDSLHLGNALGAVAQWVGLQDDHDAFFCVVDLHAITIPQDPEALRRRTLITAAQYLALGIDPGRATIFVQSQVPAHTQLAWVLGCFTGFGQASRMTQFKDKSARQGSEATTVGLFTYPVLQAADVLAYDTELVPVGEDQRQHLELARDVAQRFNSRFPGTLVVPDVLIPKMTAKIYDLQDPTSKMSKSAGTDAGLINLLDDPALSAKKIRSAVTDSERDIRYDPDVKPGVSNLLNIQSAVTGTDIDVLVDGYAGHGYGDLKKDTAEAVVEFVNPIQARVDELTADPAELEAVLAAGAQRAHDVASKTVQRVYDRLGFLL
UniProt P9WPC5, whole entry: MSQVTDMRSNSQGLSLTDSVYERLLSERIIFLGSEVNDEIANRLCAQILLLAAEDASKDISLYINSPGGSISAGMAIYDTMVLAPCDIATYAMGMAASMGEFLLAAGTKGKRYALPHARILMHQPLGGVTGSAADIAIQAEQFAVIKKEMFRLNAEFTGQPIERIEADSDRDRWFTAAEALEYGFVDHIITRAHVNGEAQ
UniProt P9WPC3, whole entry partner: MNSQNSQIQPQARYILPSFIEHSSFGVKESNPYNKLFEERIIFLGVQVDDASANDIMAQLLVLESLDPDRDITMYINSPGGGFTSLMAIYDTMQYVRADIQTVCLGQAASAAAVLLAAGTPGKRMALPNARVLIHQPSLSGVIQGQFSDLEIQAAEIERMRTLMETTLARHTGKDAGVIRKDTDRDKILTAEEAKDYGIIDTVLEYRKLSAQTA
UniProt Q8IDJ8, 1-583: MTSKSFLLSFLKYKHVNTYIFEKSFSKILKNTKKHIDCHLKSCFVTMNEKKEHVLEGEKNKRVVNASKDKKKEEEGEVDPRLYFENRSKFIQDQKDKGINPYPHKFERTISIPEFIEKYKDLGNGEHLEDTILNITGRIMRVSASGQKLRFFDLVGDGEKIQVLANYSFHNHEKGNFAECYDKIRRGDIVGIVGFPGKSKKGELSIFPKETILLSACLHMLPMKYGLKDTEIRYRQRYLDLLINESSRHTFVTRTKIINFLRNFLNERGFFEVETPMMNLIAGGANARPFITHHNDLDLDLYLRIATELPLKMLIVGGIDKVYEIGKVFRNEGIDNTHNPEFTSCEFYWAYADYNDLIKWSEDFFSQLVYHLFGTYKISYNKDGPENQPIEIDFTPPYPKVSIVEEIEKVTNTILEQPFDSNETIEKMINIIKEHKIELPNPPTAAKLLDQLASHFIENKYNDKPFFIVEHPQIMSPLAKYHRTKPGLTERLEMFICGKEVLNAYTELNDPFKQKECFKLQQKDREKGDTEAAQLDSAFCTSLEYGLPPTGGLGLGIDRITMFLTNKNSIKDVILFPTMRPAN
UniProt P9WNZ1, whole entry: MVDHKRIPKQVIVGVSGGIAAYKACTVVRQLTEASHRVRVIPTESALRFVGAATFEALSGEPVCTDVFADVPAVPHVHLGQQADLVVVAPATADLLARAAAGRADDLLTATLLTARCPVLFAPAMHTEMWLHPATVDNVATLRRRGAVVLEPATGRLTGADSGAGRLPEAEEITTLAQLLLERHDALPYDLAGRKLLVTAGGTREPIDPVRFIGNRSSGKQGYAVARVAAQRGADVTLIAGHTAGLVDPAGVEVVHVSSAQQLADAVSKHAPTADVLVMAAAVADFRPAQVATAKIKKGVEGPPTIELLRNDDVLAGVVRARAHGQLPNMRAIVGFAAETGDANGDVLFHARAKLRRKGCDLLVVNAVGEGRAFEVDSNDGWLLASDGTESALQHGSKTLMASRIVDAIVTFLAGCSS

The values are deposited in ChEMBL (CHEMBL3988442, “University of Dundee, Small-Polar-MMV Screening Library” (2021)).

Each number is a percent effect as filed.
The controls that fix the scale are not given in the record; negative values are as filed.
This is an unselected part of the compounds tested.
Two or more numbers in one place are separate tests of the same structure; such repeats can differ widely.
A dash means the value is not listed here; it may have been measured.

MtTrpRS: 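Tryptophan-tRNA ligase, Mycobacterium tuberculosis (UniProt P9WFT3). Enzyme assay of tryptophanyl-tRNA synthetase; the read-out is not stated. Compounds at 10 µM. Higher most likely means stronger inhibition; the record gives no direction and few retests gave an IC50. About 65,000 compounds were tested under these conditions; 0.098% (about 64) showed 50% or more at least once.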
ClpP1P2: 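ClpP1P2, Mycobacterium tuberculosis (UniProt P9WPC5 and UniProt P9WPC3). Protease assay of ClpP1P2, read by the AMC dye that it sets free. Concentration: 50 µM. Direction is inferred from only a few compounds that gave an IC50; most scored high, so higher reads as stronger inhibition. Most other retested compounds had strongly negative values. Of about 69,000 compounds tested this way, about 10 (0.015%) reached 50% or more in at least one test.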
Leishmania in macrophages: 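Cell assay of Leishmania donovani living inside macrophages; the read-out is not stated. Compounds at 30 µM. Higher reads as stronger inhibition (inferred: compounds with an IC50 in retests scored well above the rest). Size under these conditions: about 69,000 compounds, about 1,000 of them at 50% or above in at least one test.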
PfKRS1: 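Lysine-tRNA ligase, Plasmodium falciparum 3D7 (UniProt Q8IDJ8). Enzyme assay of the cytosolic lysyl-tRNA synthetase in 384-well plates, read by luminescence. Tested at 30 µM. Higher reads as stronger inhibition, judged from the few compounds that gave an IC50. Of about 69,000 compounds tested this way, about 49 (0.071%) reached 50% or more in at least one test.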
CoaBC: 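Enzyme assay of CoaBC with a phosphate dye (Biomol Green) read at 650 nm. Target: Coenzyme A biosynthesis protein CoaBC, Mycobacterium tuberculosis (UniProt P9WNZ1). Tested at 30 µM. Direction is inferred from only a few compounds that gave an IC50; most scored high, so higher reads as stronger inhibition. Most strong results did not repeat in a second test. Of about 67,000 compounds tested this way, about 40 (0.06%) reached 50% or more in at least one test.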

Compound,MtTrpRS,ClpP1P2,Leishmania in macrophages,PfKRS1,CoaBC
Cc1cccc(OCCC(=O)NC(C)c2nnc3n2CCC3)c1 (configuration not stated),19.35,-19.2,13.45,-0.7693,-8.498
COc1ccccc1OCc1cc(C(=O)N2CCOCC2CO)n[nH]1 (configuration not stated),-0.277,-1.952,28.86,6.34,1.775
CCNc1ncc(C(=O)NCc2csc(-c3cnccn3)n2)cn1,-0.7401,-21.77,8.852,7.229,6.258
Cc1nc[nH]c1C(=O)N1CC[C@@H](NC(=O)c2ccccn2)[C@H](O)C1,-3.476,1.566,11.08,2.647,-0.7712
COc1ccc(CNC(C)c2cccc(Br)c2)c(OC)c1OC (configuration not stated),1.521,13.41,-,11.92,-11.16
CCc1n[nH]c(C2CN(C(=O)Cc3ccc(C)nc3)CCO2)n1 (configuration not stated),0.97,8.487,12.11,3.078,0.641
Cc1oc(C(=O)Nc2cccc(Cl)c2C)cc1S(N)(=O)=O,3.613,-0.6133,-16.19,4.365,7.071
CCc1nc2c(c(NCc3nc(-c4cccnc4)no3)n1)CCNCC2,-0.1006,-7.094,9.467,0.4474,-18.72
Cc1ccccc1N1CCCN(C(=O)c2cn(C)c3ccccc23)CC1,-3.284,-7.089,6.121,-0.2444,0.6242
CCN(CC)S(=O)(=O)N1CCCC(c2ccc(C(=O)O)cc2)C1 (configuration not stated),-2.864,-20.23,1.347,2.613,-3.625
O=C(O)C(F)(F)F.O=C(O)C(F)(F)F.[H][C@@]12CN(Cc3nccs3)CCC[C@]1(C(=O)OCC)CN(CC(C)C)C2,-,-,-15.97 and 5.447,-,-
COCc1noc(CN2CC(=O)N(C)c3ccccc3C2=O)n1,1.911,-4.331,-13.27,5.144,6.827
COc1cccc(OCC2CCCN(C(=O)c3ccc(N)nc3)C2)c1 (configuration not stated),0.4515,-17.53,7.986,2.398,1.707
CN1CCc2ncc(CNC(=O)c3cccn3C)n2CC1,0.6509,-8.817,-,7.605,0.3257
[H][C@@]12CN(C(=O)CC3CC3)C[C@]1([H])C(=O)N(CCOC)C2,-,-,10.45,-,-
CC(C)NC(=O)N1CCN(C(=O)C(C)C)CC2(CC(=O)N(C)C2)C1 (configuration not stated),2.351,-14.24,13.19,3.984,3.509
COCCN(Cc1ccoc1)C(=O)c1cccnc1SC,-0.7718,-25.44,9.512,2.282,2.662
CSc1ccc(C(CNC(C)=O)N2CCc3sccc3C2)cc1 (configuration not stated),4.241,8.978,11.44,-1.016,-3.03
[H][C@@]12CCN(S(C)(=O)=O)C[C@@]1([H])O[C@@H](c1ccnc(C)n1)C2,-,-,-4.721,-,-
CCNC(=O)N1CCc2ccc(NC(=O)NCC3CC3)cc21,0.7424,-5.686,-9.062,-0.4684,-1.145
CN(Cc1cnc(N)nc1)C(=O)c1coc(COc2ccccc2)n1,-5.109,0.04107,16.04,-1.189,9.979
CN(C)c1nc(N)nc(CN2CCCC(c3ccccc3)CC2)n1 (configuration not stated),-4.359,-5.82,6.795,3.003,0.3681
c1ccc(-c2cc(CN3CCc4cncnc4C3)on2)cc1,-5.263,-8.416,9.48,2.623,1.786
CCCc1n[nH]c(C2CN(CCn3cccn3)CCO2)n1 (configuration not stated),-6.635,-7.03,-5.311,-0.8091,-1.688
CS(=O)(=O)c1ccc(Cl)c(C(=O)NCCC2=CCCCC2)c1,13.67,12.74,-13.03,3.038,11.33
CN1CC2(CCN(C(=O)c3ccc(-n4cccn4)cc3Cl)C2)OC1=O (configuration not stated),-4.271,8.02,27.92,3.756,3.185
CCOCCNC(=O)c1cccnc1N1CCCC1c1ccccn1 (configuration not stated),-,-16.34,27.43,5.071,2.913
CCSc1ccccc1C(=O)NCCn1nc(C(F)(F)F)n(C)c1=O,1.251,-13.06,22.2,3.201,1.124
NC(=O)C(c1ccc(F)cc1)N1CCN(CCO)CC1 (configuration not stated),-4.379,-5.75,-,-1.499,10.29
Cn1c(CCNC(=O)C2CCCN(C3CCOCC3)C2)n[nH]c1=O (configuration not stated),4.591,-7.622,60.82,3.097,1.088
Cc1cc(CC(=O)NC2CCCN(c3ccccc3Cl)C2=O)n[nH]1 (configuration not stated),1.989,-17.18,-67.13,-0.3439,5.897
Cc1ccc(NS(=O)(=O)c2cc3c(c(C(=O)O)c2)OCCO3)cc1C,-0.8946,-3.784,19.87,0.5987,5.216
COc1cncc(N2CCN(Cc3ccco3)CC2)n1,-3.216,-9.191,-8.566,1.058,3.34
Cn1cccc1-c1cc(C(=O)N2CCCC2c2nccs2)[nH]n1 (configuration not stated),0.243,-1.67,-2.157,11.72,10.71
C[C@H]1C[C@H]2CN(S(=O)(=O)c3ccc(F)cc3)CC[C@H]2O1,6.686,9.289,-,8.163,1.673
CCCOCCOC(=O)c1ccc2c(c1)[nH]c(=O)n2C,1.941,-5.828,-46.7,-2.708,5.288
O=C([C@@H]1CSCN1)N1CC2(CCNCC2)c2cc(Cl)ccc21,-,1.026,-,0.6861,3.273
CCOCc1nc2c(c(N(C)Cc3nonc3C)n1)CCNCC2,1.575,-4.163,-14.64,0.8416,1.096
CC(C)(C)C(=O)NCCC(=O)NS(=O)(=O)c1ccc2c(c1)OCCO2,-3.35,1.268,-0.07159,1.704,-4.478
O=C(NCCCn1ccnc1)N1CCN(c2cccs2)CC1,3.008,-0.641,5.306,-2.055,2.899
O=C(NCc1cccs1)C1CN(C(=O)c2cccs2)CC12CCOCC2 (configuration not stated),-8.08,-0.4625,25.98,-0.3085,4.188
CN(C)CCOCc1cncc2c1CCN(C(=O)C1CCOCC1)C2.O=C(O)C(F)(F)F.O=C(O)C(F)(F)F,-,-,6.53,-,-
NCc1cnn(-c2ccccc2C(=O)NCCc2ccncc2)c1,-,-12.52,12.16,-0.1902,5.824
COCCNC(=O)NCc1cccc(-n2ccnc2)c1,0.7498,-10.84,9.743 and 13.49,4.051,3.038
COCCCN1CC2(CCC1=O)CCN(Cc1cc(C(C)C)no1)CC2,-5.87,11.19,-72.38,-4.204,-1.327
O=C(CC1COCCN1)N1CCCN(C2Cc3ccccc3C2)CC1 (configuration not stated),2.592,0.866,39.88,4.809,-0.994
COCCc1noc(-c2cc(Cl)c3c(c2)OCCCO3)n1,0,-13.21,-48.92,2.13,5.443
Cc1nnc(NCc2ccc(Br)cc2)o1,-3.666,-6.664,17,11.19,-1.789
COc1c(CNCc2cccnc2OC2CCCC2)c(C)nn1C,-1.642,-7.211,23.3,5.251,13.68

Some entries from above, unchanged:

{"compound": "Cc1cc(CC(=O)NC2CCCN(c3ccccc3Cl)C2=O)n[nH]1", "stereo": "configuration not stated", "MtTrpRS": 1.989, "ClpP1P2": -17.18, "Leishmania in macrophages": -67.13, "PfKRS1": -0.3439, "CoaBC": 5.897}
{"compound": "CN1CC2(CCN(C(=O)c3ccc(-n4cccn4)cc3Cl)C2)OC1=O", "stereo": "configuration not stated", "MtTrpRS": -4.271, "ClpP1P2": 8.02, "Leishmania in macrophages": 27.92, "PfKRS1": 3.756, "CoaBC": 3.185}
{"compound": "CCc1n[nH]c(C2CN(C(=O)Cc3ccc(C)nc3)CCO2)n1", "stereo": "configuration not stated", "MtTrpRS": 0.97, "ClpP1P2": 8.487, "Leishmania in macrophages": 12.11, "PfKRS1": 3.078, "CoaBC": 0.641}